Structures can show the parent of a compound that is named as a salt. The list shows a part of the results. Hit calls seldom repeat between salt and free forms of one compound.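 Kinases were expressed as nanoluciferase fusions in K562 cells and luminescence was read every 4 h between 2 and 18 h as percent of control, DMSO set to 100% and a positive control to 0%. A time point counts as decreased when the signal drops significantly (2 sigma). The hit call is the authors' own, does not follow from the count of time points alone, and its rule is not shown.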
Key:
Assay in all cases: kinase-Nluc reporter destabilization hit call (1 = scored as downregulated) (binary); higher = compound decreases kinase abundance
Conditions in all cases: K562; 2-18 h
[1] = target: ERN1 (UniProt O75460)
[2] = target: FGFR1 (UniProt P11362)
[3] = target: FGFR2 (UniProt P21802)
[4] = target: FGFR3 (UniProt P22607)
[5] = target: FGR (UniProt P09769)
[6] = target: FLT3 (UniProt P36888)
[7] = target: FYN (UniProt P06241)
[8] = target: GSK3A (UniProt P49840)
[9] = target: HER2 (UniProt P04626)
[10] = target: INSRR (UniProt P14616)

Protein sequences, listed by entry. Tags and fused reporters are not part of them. Lines headed by an entry give the natural chain unless they say otherwise; changes in a name come on top.
UniProt O75460: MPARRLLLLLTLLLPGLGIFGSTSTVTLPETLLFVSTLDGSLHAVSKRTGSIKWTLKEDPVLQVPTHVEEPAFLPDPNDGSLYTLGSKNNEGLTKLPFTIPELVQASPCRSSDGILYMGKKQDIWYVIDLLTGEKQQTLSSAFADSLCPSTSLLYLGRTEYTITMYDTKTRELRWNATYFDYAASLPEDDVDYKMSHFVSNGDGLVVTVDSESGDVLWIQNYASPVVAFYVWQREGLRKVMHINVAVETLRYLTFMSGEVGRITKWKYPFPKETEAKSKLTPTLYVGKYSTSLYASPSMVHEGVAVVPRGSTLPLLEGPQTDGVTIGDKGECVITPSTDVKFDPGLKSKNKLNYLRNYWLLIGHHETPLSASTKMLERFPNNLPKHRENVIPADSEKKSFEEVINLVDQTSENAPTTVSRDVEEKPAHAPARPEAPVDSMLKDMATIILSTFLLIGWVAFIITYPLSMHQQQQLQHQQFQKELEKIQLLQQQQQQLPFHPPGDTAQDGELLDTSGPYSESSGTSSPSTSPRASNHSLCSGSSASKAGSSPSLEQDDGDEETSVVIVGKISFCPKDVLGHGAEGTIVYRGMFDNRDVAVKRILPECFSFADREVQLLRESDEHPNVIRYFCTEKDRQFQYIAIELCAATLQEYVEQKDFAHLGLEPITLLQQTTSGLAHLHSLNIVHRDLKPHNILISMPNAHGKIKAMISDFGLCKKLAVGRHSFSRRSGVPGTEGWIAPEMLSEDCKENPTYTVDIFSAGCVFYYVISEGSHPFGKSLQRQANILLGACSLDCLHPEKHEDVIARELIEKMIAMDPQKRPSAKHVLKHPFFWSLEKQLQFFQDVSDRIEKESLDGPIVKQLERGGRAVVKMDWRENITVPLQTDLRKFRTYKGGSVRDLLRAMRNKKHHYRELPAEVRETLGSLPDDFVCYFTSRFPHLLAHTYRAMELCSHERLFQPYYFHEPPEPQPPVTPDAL
UniProt P11362, whole entry, looked up: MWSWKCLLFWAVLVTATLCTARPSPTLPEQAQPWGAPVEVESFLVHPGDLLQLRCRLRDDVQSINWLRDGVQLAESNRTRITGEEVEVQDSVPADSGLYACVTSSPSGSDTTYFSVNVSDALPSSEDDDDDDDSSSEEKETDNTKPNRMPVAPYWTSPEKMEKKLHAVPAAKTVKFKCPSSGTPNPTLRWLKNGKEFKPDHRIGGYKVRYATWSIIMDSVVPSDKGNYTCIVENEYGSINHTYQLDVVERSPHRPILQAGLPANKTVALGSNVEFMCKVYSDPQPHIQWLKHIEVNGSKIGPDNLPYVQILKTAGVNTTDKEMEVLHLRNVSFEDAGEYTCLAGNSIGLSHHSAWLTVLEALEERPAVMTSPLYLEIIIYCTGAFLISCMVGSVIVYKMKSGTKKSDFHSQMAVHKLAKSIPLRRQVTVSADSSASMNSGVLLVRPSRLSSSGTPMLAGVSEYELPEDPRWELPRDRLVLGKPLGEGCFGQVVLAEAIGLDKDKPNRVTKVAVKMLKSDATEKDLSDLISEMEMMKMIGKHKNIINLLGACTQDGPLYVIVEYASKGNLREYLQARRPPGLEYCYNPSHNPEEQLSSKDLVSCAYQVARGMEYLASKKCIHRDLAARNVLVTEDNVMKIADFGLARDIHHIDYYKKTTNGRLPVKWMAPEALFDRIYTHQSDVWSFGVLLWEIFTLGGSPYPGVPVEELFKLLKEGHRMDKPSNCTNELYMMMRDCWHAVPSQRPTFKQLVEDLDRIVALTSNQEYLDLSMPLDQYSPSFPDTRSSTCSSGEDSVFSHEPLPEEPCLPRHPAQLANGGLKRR
UniProt P21802, whole entry, looked up: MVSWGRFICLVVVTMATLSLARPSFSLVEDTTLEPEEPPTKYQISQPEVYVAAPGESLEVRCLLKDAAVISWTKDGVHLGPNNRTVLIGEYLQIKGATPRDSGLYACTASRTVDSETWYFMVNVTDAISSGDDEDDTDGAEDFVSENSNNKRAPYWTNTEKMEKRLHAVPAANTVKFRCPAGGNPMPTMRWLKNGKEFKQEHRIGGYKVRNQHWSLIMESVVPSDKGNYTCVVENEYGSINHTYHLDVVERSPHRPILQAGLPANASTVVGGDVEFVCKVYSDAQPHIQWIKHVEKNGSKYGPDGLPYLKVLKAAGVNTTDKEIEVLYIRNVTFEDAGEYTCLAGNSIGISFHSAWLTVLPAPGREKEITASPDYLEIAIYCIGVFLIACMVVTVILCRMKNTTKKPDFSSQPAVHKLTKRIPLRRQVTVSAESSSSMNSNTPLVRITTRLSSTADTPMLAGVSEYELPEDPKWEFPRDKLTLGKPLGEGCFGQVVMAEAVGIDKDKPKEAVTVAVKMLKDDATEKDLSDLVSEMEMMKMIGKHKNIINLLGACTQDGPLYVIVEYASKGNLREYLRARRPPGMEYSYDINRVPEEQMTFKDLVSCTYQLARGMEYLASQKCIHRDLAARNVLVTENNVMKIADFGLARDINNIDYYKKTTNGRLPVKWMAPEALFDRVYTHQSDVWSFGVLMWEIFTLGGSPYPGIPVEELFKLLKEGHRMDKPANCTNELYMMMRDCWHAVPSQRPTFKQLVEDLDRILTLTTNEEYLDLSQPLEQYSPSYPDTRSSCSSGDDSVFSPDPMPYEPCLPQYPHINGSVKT
UniProt P22607, whole entry, looked up: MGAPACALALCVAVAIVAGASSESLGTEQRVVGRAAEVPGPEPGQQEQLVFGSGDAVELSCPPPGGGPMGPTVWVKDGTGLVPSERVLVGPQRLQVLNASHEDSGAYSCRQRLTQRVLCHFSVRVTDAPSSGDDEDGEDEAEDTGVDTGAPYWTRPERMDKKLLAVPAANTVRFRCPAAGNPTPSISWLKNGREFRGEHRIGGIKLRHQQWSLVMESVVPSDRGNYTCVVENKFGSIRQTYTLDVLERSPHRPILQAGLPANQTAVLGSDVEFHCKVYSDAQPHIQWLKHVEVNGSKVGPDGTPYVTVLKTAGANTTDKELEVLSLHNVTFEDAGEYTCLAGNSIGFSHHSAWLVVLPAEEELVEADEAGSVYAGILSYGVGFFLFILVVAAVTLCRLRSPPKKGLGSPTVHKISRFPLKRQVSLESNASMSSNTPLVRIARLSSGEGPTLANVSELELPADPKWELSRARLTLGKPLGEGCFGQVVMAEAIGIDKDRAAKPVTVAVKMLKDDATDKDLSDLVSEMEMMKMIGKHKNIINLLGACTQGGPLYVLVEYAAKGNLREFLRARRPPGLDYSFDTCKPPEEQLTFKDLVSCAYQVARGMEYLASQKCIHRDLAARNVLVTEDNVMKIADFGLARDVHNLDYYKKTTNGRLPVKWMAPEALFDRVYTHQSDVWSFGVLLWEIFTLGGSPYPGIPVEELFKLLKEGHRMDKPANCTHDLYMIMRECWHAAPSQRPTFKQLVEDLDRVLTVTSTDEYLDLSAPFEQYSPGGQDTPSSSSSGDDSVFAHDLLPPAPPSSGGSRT
UniProt P36888, whole entry: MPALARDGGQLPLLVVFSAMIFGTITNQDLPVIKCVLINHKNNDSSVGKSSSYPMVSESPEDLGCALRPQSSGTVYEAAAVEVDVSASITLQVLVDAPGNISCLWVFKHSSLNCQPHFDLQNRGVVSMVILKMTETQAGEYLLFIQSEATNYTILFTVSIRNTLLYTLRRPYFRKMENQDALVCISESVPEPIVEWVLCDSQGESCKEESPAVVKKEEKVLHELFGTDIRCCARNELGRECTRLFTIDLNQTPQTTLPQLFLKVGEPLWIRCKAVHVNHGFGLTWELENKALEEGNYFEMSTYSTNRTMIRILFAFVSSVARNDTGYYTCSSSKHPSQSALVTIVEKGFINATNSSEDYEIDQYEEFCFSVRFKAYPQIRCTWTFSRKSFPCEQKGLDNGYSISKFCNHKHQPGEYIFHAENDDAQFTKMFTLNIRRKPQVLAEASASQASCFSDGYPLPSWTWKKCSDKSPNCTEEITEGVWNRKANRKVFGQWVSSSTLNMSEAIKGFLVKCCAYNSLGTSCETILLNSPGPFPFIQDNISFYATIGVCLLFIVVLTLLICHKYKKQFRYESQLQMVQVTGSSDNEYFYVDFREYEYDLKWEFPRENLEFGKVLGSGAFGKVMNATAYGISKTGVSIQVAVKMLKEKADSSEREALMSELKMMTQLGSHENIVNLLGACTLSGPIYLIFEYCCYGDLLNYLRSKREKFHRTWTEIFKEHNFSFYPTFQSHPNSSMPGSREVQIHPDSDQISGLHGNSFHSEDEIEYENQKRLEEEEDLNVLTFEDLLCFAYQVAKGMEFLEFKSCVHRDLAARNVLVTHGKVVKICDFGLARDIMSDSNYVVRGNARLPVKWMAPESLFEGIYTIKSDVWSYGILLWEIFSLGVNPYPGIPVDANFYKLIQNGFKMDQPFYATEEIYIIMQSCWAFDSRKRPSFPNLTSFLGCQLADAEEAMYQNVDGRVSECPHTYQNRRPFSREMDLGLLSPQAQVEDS
UniProt P49840: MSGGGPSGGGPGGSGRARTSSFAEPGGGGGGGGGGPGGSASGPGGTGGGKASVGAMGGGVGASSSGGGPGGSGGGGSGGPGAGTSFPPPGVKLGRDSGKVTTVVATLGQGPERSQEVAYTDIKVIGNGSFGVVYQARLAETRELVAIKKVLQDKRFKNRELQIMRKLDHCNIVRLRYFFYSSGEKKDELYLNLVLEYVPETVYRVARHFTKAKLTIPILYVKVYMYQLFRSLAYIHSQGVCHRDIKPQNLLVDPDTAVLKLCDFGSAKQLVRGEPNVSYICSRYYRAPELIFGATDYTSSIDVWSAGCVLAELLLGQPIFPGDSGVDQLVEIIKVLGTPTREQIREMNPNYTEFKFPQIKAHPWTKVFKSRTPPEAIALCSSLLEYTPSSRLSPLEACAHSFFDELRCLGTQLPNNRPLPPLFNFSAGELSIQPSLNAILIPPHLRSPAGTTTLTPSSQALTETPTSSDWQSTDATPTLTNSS
UniProt P14616: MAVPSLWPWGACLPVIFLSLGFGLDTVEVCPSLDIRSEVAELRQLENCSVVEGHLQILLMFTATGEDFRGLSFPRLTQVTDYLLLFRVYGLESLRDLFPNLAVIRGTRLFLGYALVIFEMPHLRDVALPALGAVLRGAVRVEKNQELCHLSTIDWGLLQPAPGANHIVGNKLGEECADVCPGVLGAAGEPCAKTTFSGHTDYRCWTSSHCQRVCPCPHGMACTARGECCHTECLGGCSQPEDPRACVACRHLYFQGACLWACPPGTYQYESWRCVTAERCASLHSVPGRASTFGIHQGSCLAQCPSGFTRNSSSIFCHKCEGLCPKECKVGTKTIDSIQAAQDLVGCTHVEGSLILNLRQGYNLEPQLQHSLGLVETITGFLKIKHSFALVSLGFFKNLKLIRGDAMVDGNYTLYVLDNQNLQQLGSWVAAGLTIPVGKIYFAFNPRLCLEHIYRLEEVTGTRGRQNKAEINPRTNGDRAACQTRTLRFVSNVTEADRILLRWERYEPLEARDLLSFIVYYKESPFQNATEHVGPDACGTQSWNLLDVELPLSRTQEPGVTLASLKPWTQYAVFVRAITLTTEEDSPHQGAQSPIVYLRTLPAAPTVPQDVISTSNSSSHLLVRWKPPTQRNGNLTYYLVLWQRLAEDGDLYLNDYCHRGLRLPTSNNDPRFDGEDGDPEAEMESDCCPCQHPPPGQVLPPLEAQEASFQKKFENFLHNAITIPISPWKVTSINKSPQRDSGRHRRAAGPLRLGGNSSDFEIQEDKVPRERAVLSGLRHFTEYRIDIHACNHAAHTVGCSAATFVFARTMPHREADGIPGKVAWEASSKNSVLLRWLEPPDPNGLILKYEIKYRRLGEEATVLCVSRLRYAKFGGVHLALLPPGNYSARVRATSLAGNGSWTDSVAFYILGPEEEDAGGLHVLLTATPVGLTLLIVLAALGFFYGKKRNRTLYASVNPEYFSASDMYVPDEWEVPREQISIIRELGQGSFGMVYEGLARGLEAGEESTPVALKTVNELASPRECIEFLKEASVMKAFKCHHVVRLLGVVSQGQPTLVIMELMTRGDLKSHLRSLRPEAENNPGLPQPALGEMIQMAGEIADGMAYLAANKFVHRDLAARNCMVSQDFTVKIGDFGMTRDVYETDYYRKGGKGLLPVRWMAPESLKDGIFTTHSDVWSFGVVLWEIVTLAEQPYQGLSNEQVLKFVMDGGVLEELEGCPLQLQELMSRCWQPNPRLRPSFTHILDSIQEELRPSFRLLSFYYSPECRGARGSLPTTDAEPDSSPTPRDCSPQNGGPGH

SMILES	kinase-Nluc reporter destabilization hit call [1]	kinase-Nluc reporter destabilization hit call [2]	kinase-Nluc reporter destabilization hit call [3]	kinase-Nluc reporter destabilization hit call [4]	kinase-Nluc reporter destabilization hit call [5]	kinase-Nluc reporter destabilization hit call [6]	kinase-Nluc reporter destabilization hit call [7]	kinase-Nluc reporter destabilization hit call [8]	kinase-Nluc reporter destabilization hit call [9]	kinase-Nluc reporter destabilization hit call [10]
CC(C)n1c(=O)n(C)c2cnc3cc(F)c(-c4ccc(OCCCN5CCCCC5)nc4)cc3c21 (10 µM)	inactive: 0	inactive: 0	inactive: 0	inactive: 0	inactive: 0	inactive: 0	inactive: 0	inactive: 0	inactive: 0	inactive: 0
COc1cc2c(cc1O)C[C@H]1c3cc(O)c(OC)cc3CC[N@@+]1(C)C2 [Phellodendrine] (10 µM)	inactive: 0	inactive: 0	inactive: 0	inactive: 0	inactive: 0	inactive: 0	inactive: 0	inactive: 0	inactive: 0	inactive: 0
CO[C@H]1C[C@@H]2CC[C@@H](C)[C@@](O)(O2)C(=O)C(=O)N2CCCC[C@H]2C(=O)O[C@H]([C@H](C)C[C@@H]2CC[C@@H](OC(=O)C(C)(CO)CO)[C@H](OC)C2)CC(=O)[C@H](C)/C=C(\C)[C@@H](O)[C@@H](OC)C(=O)[C@H](C)C[C@H](C)/C=C/C=C/C=C/1C [Temsirolimus] (2.5 µM)	inactive: 0	inactive: 0	inactive: 0	inactive: 0	inactive: 0	inactive: 0	inactive: 0	inactive: 0	inactive: 0	inactive: 0
CC(C)n1ncnc1-c1cn2c(n1)-c1ccc(O[C@@H](C)C(N)=O)cc1OCC2 (10 µM)	inactive: 0	inactive: 0	inactive: 0	inactive: 0	inactive: 0	inactive: 0	inactive: 0	inactive: 0	inactive: 0	inactive: 0
C[C@H]1O[C@@H](O[C@H]2CC[C@@]3(C)[C@@H](CC[C@]4(C)[C@@H]3C=C[C@]35OC[C@@]6(CCC(C)(C)C[C@H]63)[C@H](O)C[C@]54C)[C@]2(C)CO)[C@H](O)[C@@H](O[C@@H]2O[C@H](CO)[C@@H](O)[C@H](O)[C@H]2O)[C@H]1O [Saikosaponin D] (2.5 µM)	inactive: 0	inactive: 0	inactive: 0	inactive: 0	inactive: 0	inactive: 0	inactive: 0	inactive: 0	inactive: 0	inactive: 0
CC(C)=CCC/C(C)=C/CC/C(C)=C/C=C/C(C)=C/C(=O)O [Peretinoin] (10 µM)	inactive: 0	inactive: 0	inactive: 0	inactive: 0	inactive: 0	inactive: 0	inactive: 0	inactive: 0	inactive: 0	inactive: 0
c1nc2c(NC3CCCCC3)nc(Nc3ccc(N4CCOCC4)cc3)nc2[nH]1 [Reversine] (10 µM)	inactive: 0	inactive: 0	inactive: 0	inactive: 0	inactive: 0	inactive: 0	inactive: 0	inactive: 0	inactive: 0	inactive: 0
Cn1c(=O)c2c(nc(S(C)(=O)=O)n2C)n(CC#Cc2cccc(O)c2)c1=O (2.5 µM)	inactive: 0	inactive: 0	inactive: 0	inactive: 0	inactive: 0	inactive: 0	inactive: 0	inactive: 0	inactive: 0	inactive: 0
COc1cc2ncnc(Oc3ccc(CC(=O)Nc4cnn(C(C)C)c4)cc3)c2cc1OC (10 µM)	inactive: 0	inactive: 0	inactive: 0	inactive: 0	inactive: 0	inactive: 0	inactive: 0	inactive: 0	inactive: 0	inactive: 0
COc1cc(-c2oc3cc(O)cc(O)c3c(=O)c2O)ccc1O [Isorhamnetin] (10 µM)	inactive: 0	inactive: 0	inactive: 0	inactive: 0	inactive: 0	inactive: 0	inactive: 0	inactive: 0	inactive: 0	inactive: 0
O=C(O)[C@H]1O[C@@H](Oc2cc3oc(-c4ccc(O)cc4)cc(=O)c3c(O)c2O)[C@H](O)[C@@H](O)[C@@H]1O [Scutellarin] (10 µM)	inactive: 0	inactive: 0	inactive: 0	inactive: 0	inactive: 0	inactive: 0	inactive: 0	inactive: 0	inactive: 0	inactive: 0
Fc1ccc2[nH]ccc2c1-c1nc(N2CCOCC2)c2sc(CN3CCN(CC4CC4)CC3)cc2n1 (10 µM)	inactive: 0	inactive: 0	inactive: 0	inactive: 0	inactive: 0	inactive: 0	inactive: 0	inactive: 0	inactive: 0	inactive: 0
CNC(=O)CNc1cnc2ccc(-c3ccc(OC)c(OC)c3)cc2n1 (10 µM)	inactive: 0	inactive: 0	inactive: 0	inactive: 0	inactive: 0	inactive: 0	inactive: 0	inactive: 0	inactive: 0	inactive: 0
NC(=O)c1ccc(N(C(N)=O)c2c(F)cccc2F)nc1-c1ccc(F)cc1F (10 µM)	inactive: 0	inactive: 0	inactive: 0	inactive: 0	inactive: 0	inactive: 0	inactive: 0	inactive: 0	inactive: 0	inactive: 0
C=CC(=O)Nc1cc(Nc2nccc(-c3cn(C)c4ccccc34)n2)c(OC)cc1N(C)CCNC [AZ7550 Mesylate] (2.5 µM)	inactive: 0	inactive: 0	inactive: 0	inactive: 0	inactive: 0	inactive: 0	inactive: 0	inactive: 0	active: 1	inactive: 0
O=C(Nc1cccnc1)c1cc(-c2ccnc(F)c2)ccc1OCc1ccccc1 (10 µM)	inactive: 0	inactive: 0	inactive: 0	inactive: 0	inactive: 0	inactive: 0	inactive: 0	inactive: 0	inactive: 0	inactive: 0
O=C(NCCN1CCOCC1)Nc1nc2ccc(Sc3nnc4ccc(-c5ccc(F)cc5)nn34)cc2s1 (10 µM)	inactive: 0	inactive: 0	inactive: 0	inactive: 0	inactive: 0	inactive: 0	inactive: 0	inactive: 0	inactive: 0	inactive: 0
Cc1c(C(=O)Nc2ccc(Oc3ccnc4[nH]cc(-c5ccccc5)c34)c(F)c2)c(=O)n(-c2ccc(F)cc2)n1C (10 µM)	inactive: 0	inactive: 0	inactive: 0	inactive: 0	inactive: 0	inactive: 0	inactive: 0	inactive: 0	inactive: 0	inactive: 0
O=C(c1cccc(Cl)c1F)N1CCN(Cc2cccc(Nc3nccs3)n2)CC1 (2.5 µM)	inactive: 0	inactive: 0	inactive: 0	inactive: 0	inactive: 0	inactive: 0	inactive: 0	inactive: 0	inactive: 0	inactive: 0
CC(O)(C#Cc1ccc2c(c1)N(c1nc(N)ncc1Cl)CC2)c1nccs1 (stereo not given) (2.5 µM)	inactive: 0	inactive: 0	inactive: 0	inactive: 0	inactive: 0	inactive: 0	inactive: 0	inactive: 0	inactive: 0	inactive: 0
NC1(C(=O)NCCCn2cc(-c3ccc(OC(F)(F)F)cc3)c3cc(CN4CCN(Cc5c(Cl)cccc5Cl)CC4)ccc32)CCNCC1 (2.5 µM)	inactive: 0	inactive: 0	inactive: 0	inactive: 0	inactive: 0	inactive: 0	inactive: 0	inactive: 0	inactive: 0	inactive: 0
Cc1cc(CSc2ccccc2C(=O)NCCNc2ccc(C(F)(F)F)cc2[N+](=O)[O-])on1 (10 µM)	inactive: 0	inactive: 0	inactive: 0	inactive: 0	inactive: 0	inactive: 0	inactive: 0	inactive: 0	inactive: 0	inactive: 0
NC[C@@](O)(c1ccc(Cl)cc1)c1ccc(-c2cn[nH]c2)cc1 (10 µM)	inactive: 0	inactive: 0	inactive: 0	inactive: 0	inactive: 0	inactive: 0	inactive: 0	inactive: 0	inactive: 0	inactive: 0
O=C(Nc1ccc(Cl)cc1)C1CCCN(C(=O)c2cc(C(F)(F)F)cc(C(F)(F)F)c2)C1 (stereo not given) (10 µM)	inactive: 0	inactive: 0	inactive: 0	inactive: 0	inactive: 0	inactive: 0	inactive: 0	inactive: 0	inactive: 0	inactive: 0
Cc1cc(C)cc(NC(N)=Nc2ccccc2C(F)(F)F)c1 (10 µM)	inactive: 0	inactive: 0	inactive: 0	inactive: 0	inactive: 0	inactive: 0	inactive: 0	inactive: 0	inactive: 0	inactive: 0
Cc1nn(C)cc1-c1nc2c(N3CCN(Cc4ccc(Cl)cc4)CC3)c(Cl)cnc2[nH]1 (10 µM)	inactive: 0	inactive: 0	inactive: 0	inactive: 0	inactive: 0	inactive: 0	inactive: 0	inactive: 0	inactive: 0	inactive: 0
COc1cc2ncnc(Nc3cccc(I)c3)c2cc1OC (2.5 µM)	inactive: 0	inactive: 0	inactive: 0	inactive: 0	inactive: 0	inactive: 0	inactive: 0	inactive: 0	inactive: 0	inactive: 0
COc1cc2c(cc1OC)/C(=C/c1ccc(O)cc1)C(=O)N2 (10 µM)	inactive: 0	inactive: 0	inactive: 0	inactive: 0	inactive: 0	inactive: 0	inactive: 0	inactive: 0	inactive: 0	inactive: 0
Nc1ncc(-c2ccnc(Nc3ccncc3)n2)c(CC2CC2)n1 (10 µM)	inactive: 0	inactive: 0	inactive: 0	inactive: 0	inactive: 0	inactive: 0	inactive: 0	inactive: 0	inactive: 0	inactive: 0

A second format for some results above.

| SMILES | kinase-Nluc reporter destabilization hit call [1] | kinase-Nluc reporter destabilization hit call [2] | kinase-Nluc reporter destabilization hit call [3] | kinase-Nluc reporter destabilization hit call [4] | kinase-Nluc reporter destabilization hit call [5] | kinase-Nluc reporter destabilization hit call [6] | kinase-Nluc reporter destabilization hit call [7] | kinase-Nluc reporter destabilization hit call [8] | kinase-Nluc reporter destabilization hit call [9] | kinase-Nluc reporter destabilization hit call [10] |
| --- | --- | --- | --- | --- | --- | --- | --- | --- | --- | --- |
| Cc1c(C(=O)Nc2ccc(Oc3ccnc4[nH]cc(-c5ccccc5)c34)c(F)c2)c(=O)n(-c2ccc(F)cc2)n1C (10 µM) | inactive: 0 | inactive: 0 | inactive: 0 | inactive: 0 | inactive: 0 | inactive: 0 | inactive: 0 | inactive: 0 | inactive: 0 | inactive: 0 |
| O=C(c1cccc(Cl)c1F)N1CCN(Cc2cccc(Nc3nccs3)n2)CC1 (2.5 µM) | inactive: 0 | inactive: 0 | inactive: 0 | inactive: 0 | inactive: 0 | inactive: 0 | inactive: 0 | inactive: 0 | inactive: 0 | inactive: 0 |
| CC(O)(C#Cc1ccc2c(c1)N(c1nc(N)ncc1Cl)CC2)c1nccs1 (stereo not given) (2.5 µM) | inactive: 0 | inactive: 0 | inactive: 0 | inactive: 0 | inactive: 0 | inactive: 0 | inactive: 0 | inactive: 0 | inactive: 0 | inactive: 0 |
| NC1(C(=O)NCCCn2cc(-c3ccc(OC(F)(F)F)cc3)c3cc(CN4CCN(Cc5c(Cl)cccc5Cl)CC4)ccc32)CCNCC1 (2.5 µM) | inactive: 0 | inactive: 0 | inactive: 0 | inactive: 0 | inactive: 0 | inactive: 0 | inactive: 0 | inactive: 0 | inactive: 0 | inactive: 0 |
| Cc1cc(CSc2ccccc2C(=O)NCCNc2ccc(C(F)(F)F)cc2[N+](=O)[O-])on1 (10 µM) | inactive: 0 | inactive: 0 | inactive: 0 | inactive: 0 | inactive: 0 | inactive: 0 | inactive: 0 | inactive: 0 | inactive: 0 | inactive: 0 |
